{"source": "patent US20260337246A1", "about": "“METHODS FOR TREATING OBESITY” (Zealand Pharma A/S, priority 2022, published 2026)", "assay": "Anti-obesity effects (body weight) in DIO mice, 34 day study, sc dosing", "type": "in vivo, mouse (DIO, C57BL/6)", "note": "At least one peptide structure holds a part that was inferred or is arguable (an end, a ring closure or a residue).", "data": [{"compound": "CC[C@H](C)[C@H](NC(=O)[C@H](Cc1ccccc1)NC(=O)[C@H](C)NC(=O)[C@H](CCC(N)=O)NC(=O)[C@H](C)NC(=O)[C@H](C)NC(=O)[C@H](CCCCNC(=O)COCCOCCNC(=O)COCCOCCNC(=O)CN1CCN(C(=O)CCCCCCCCCCCCCCCCCCC(=O)O)CC1)NC(=O)[C@H](CCCCN)NC(=O)[C@H](CC(=O)O)NC(=O)[C@H](CC(C)C)NC(=O)[C@H](CCC(=O)O)NC(=O)[C@@H](NC(=O)[C@H](CO)NC(=O)[C@H](Cc1ccc(O)cc1)NC(=O)[C@H](CC(=O)O)NC(=O)[C@H](CO)NC(=O)[C@@H](NC(=O)[C@H](Cc1ccccc1)NC(=O)[C@@H](NC(=O)CNC(=O)[C@H](CCC(=O)O)NC(=O)C(C)(C)NC(=O)[C@@H](N)Cc1ccc(O)cc1)[C@@H](C)O)[C@@H](C)CC)[C@@H](C)CC)C(=O)N[C@@H](CCC(=O)O)C(=O)N[C@@H](Cc1c[nH]c2ccccc12)C(=O)N[C@@H](CC(C)C)C(=O)N[C@@H](CC(C)C)C(=O)N[C@@H](C)C(=O)N[C@@H](CCC(N)=O)C(=O)NCC(=O)N1CCC[C@H]1C(=O)N[C@@H](CO)C(=O)N[C@@H](CO)C(=O)NCC(=O)N[C@@H](C)C(=O)N1CCC[C@H]1C(=O)N1CCC[C@H]1C(=O)N1CCC[C@H]1C(=O)N[C@@H](CO)C(N)=O", "note": "[Compound 41]", "values": [{"measurement": "body weight reduction relative to initial body weights", "setting": "compound 41 300 nmol/kg ev. 2nd day sc, monotherapy from day 0 to day 34", "value": "−0.8%±0.9"}, {"measurement": "effect on benefits of GLP-1 monotherapy on body weight loss (in words)", "setting": "compound 41 added to semaglutide, DIO mice", "value": "potentiated the benefits of GLP-1 monotherapy on body weight loss"}, {"measurement": "effect of compound 41 alone on body weight loss (in words)", "setting": "compound 41 alone, at the doses tested, DIO mice", "value": "negligible effect"}, {"measurement": "body weight reduction relative to initial body weights", "setting": "vehicle until day 14, then compound 41 300 nmol/kg sc from day 14 to day 34", "value": "2.0%±0.8"}]}]}
